# No constants are given. Whether binding was seen depends on the method and setting. In cells and extracts the contact can be indirect. These calls come from enrichment with a bait or labelling near it, and not all partners need be listed. Where a sequence is shown, tags or fusion partners need not be part of it.
# By UniProt entry, the sequences of proteins in these tests, tags left out. Residues count along the entry.
# UniProt P08138, residues 29-427: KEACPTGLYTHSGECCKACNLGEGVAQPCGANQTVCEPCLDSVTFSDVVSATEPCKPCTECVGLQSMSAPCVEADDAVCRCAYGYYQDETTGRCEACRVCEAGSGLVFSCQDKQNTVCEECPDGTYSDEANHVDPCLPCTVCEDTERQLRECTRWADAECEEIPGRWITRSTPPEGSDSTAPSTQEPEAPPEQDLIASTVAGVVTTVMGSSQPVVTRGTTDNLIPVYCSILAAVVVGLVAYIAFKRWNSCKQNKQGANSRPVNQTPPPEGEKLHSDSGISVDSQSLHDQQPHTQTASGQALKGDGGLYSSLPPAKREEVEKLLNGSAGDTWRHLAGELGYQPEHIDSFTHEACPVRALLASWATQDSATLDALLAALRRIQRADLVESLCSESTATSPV
# UniProt Q86XX4, residues 27-4008: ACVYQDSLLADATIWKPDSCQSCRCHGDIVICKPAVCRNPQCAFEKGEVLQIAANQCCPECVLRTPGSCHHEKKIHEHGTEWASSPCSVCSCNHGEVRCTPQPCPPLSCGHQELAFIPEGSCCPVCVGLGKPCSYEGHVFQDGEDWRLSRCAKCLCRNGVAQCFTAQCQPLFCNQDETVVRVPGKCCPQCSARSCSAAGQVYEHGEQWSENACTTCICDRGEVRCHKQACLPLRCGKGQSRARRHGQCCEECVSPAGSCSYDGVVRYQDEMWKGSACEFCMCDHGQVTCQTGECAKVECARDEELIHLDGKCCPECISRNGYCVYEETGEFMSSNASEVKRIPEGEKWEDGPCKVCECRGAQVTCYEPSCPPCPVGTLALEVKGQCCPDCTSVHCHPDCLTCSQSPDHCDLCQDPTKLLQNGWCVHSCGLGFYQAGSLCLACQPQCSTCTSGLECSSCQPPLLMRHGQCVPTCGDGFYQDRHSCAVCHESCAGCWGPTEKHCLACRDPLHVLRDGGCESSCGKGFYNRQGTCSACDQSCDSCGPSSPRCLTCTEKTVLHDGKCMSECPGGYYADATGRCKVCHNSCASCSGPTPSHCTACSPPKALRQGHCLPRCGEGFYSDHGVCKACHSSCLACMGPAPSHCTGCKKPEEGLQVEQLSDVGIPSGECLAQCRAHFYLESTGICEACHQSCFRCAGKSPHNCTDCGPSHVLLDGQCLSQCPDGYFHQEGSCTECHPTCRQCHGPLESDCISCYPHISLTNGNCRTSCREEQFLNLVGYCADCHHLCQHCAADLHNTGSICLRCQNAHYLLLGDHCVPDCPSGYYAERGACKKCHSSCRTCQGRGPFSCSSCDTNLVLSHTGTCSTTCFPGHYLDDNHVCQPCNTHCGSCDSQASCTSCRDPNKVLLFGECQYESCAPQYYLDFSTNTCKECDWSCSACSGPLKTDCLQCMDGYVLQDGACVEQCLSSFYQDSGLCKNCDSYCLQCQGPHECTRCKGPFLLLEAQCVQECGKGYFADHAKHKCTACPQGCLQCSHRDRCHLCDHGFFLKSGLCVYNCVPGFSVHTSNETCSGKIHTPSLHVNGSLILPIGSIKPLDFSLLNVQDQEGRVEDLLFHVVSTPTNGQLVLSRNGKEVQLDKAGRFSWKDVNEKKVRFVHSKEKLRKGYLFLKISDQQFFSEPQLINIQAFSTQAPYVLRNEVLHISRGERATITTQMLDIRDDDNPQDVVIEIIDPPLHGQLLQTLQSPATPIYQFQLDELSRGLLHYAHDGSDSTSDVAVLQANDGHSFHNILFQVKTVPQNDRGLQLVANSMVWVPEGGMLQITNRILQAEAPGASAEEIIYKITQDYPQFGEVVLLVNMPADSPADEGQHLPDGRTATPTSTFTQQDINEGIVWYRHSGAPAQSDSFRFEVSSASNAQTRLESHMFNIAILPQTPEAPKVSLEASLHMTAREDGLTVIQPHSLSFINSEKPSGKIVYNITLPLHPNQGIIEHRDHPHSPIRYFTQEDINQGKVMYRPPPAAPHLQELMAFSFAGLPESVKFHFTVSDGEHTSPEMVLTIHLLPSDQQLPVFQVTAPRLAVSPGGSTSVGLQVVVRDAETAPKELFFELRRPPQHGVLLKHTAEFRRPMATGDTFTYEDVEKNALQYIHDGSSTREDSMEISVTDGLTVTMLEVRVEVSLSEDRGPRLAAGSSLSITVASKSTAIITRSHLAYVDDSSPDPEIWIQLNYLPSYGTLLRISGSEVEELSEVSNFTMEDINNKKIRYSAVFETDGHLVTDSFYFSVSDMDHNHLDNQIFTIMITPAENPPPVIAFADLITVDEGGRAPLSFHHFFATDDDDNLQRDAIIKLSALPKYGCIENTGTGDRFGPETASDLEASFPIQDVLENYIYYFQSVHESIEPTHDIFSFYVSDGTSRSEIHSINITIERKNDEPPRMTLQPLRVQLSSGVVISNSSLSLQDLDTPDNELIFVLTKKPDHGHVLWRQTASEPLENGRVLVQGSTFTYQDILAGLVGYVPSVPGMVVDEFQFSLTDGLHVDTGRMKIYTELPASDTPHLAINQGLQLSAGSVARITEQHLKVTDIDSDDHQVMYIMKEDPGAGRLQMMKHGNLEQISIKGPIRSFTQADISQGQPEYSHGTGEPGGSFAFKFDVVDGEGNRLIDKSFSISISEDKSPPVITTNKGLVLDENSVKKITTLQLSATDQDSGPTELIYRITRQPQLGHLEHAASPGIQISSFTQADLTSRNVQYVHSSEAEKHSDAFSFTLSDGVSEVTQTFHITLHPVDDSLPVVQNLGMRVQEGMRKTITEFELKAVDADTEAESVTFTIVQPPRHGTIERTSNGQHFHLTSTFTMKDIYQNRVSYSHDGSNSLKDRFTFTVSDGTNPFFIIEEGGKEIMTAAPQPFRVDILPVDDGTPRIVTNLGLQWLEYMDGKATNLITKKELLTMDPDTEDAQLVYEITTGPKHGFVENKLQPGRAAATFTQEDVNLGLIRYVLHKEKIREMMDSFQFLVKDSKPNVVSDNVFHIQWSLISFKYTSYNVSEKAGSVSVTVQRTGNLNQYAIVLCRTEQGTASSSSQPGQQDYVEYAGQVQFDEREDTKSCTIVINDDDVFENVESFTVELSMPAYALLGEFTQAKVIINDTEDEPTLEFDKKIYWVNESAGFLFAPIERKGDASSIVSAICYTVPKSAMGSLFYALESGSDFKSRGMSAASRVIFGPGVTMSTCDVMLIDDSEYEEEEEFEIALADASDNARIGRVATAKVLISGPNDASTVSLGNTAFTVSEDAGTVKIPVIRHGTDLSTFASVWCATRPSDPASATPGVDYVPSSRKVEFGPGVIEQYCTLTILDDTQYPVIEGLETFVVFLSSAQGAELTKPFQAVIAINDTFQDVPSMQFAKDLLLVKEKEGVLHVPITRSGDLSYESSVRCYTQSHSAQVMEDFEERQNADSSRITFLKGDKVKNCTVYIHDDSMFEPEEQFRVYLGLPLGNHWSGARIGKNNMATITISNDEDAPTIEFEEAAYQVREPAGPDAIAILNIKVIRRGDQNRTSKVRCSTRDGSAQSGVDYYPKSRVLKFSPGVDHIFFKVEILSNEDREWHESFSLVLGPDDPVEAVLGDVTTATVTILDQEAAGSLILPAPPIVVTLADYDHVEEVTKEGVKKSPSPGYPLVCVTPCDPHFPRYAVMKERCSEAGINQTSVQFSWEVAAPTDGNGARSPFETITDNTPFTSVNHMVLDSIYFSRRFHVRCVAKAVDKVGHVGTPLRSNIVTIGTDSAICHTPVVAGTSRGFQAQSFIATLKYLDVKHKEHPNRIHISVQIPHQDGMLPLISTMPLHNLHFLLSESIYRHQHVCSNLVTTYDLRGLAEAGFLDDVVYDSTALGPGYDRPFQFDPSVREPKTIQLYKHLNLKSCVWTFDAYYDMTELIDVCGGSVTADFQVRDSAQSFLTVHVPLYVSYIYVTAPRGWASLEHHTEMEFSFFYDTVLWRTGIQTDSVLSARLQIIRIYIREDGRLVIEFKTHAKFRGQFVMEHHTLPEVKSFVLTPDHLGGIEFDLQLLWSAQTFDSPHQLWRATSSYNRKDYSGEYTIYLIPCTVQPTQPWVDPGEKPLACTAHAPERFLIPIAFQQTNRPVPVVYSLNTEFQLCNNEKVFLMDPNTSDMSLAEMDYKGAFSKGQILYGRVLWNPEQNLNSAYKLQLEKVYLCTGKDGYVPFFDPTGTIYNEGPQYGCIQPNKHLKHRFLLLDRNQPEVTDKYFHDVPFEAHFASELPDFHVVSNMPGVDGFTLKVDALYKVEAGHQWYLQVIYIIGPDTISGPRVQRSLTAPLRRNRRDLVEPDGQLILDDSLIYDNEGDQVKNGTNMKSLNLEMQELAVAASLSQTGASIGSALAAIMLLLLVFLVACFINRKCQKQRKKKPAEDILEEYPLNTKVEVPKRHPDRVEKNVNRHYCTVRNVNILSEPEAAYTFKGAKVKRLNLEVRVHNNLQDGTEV
# UniProt P35222: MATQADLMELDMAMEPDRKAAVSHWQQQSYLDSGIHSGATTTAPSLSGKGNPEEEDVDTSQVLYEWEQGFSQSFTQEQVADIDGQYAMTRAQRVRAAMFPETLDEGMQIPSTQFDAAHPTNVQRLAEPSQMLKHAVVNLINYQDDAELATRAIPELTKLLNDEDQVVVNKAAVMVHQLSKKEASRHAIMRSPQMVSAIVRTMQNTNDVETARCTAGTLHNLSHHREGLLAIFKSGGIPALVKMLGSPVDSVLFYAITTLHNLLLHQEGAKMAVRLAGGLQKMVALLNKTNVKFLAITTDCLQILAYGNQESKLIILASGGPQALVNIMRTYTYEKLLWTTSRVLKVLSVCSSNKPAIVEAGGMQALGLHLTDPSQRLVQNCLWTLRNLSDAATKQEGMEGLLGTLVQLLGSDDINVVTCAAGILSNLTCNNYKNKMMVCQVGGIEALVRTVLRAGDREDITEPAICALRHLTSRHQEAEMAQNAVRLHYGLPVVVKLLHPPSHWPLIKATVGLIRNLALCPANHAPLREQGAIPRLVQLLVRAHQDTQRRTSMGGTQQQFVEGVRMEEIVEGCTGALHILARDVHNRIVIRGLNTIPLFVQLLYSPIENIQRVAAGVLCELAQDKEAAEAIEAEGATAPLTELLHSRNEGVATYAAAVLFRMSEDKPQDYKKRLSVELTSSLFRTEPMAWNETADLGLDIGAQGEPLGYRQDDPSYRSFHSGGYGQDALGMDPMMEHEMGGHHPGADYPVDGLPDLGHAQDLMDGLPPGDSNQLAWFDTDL
# UniProt P20020: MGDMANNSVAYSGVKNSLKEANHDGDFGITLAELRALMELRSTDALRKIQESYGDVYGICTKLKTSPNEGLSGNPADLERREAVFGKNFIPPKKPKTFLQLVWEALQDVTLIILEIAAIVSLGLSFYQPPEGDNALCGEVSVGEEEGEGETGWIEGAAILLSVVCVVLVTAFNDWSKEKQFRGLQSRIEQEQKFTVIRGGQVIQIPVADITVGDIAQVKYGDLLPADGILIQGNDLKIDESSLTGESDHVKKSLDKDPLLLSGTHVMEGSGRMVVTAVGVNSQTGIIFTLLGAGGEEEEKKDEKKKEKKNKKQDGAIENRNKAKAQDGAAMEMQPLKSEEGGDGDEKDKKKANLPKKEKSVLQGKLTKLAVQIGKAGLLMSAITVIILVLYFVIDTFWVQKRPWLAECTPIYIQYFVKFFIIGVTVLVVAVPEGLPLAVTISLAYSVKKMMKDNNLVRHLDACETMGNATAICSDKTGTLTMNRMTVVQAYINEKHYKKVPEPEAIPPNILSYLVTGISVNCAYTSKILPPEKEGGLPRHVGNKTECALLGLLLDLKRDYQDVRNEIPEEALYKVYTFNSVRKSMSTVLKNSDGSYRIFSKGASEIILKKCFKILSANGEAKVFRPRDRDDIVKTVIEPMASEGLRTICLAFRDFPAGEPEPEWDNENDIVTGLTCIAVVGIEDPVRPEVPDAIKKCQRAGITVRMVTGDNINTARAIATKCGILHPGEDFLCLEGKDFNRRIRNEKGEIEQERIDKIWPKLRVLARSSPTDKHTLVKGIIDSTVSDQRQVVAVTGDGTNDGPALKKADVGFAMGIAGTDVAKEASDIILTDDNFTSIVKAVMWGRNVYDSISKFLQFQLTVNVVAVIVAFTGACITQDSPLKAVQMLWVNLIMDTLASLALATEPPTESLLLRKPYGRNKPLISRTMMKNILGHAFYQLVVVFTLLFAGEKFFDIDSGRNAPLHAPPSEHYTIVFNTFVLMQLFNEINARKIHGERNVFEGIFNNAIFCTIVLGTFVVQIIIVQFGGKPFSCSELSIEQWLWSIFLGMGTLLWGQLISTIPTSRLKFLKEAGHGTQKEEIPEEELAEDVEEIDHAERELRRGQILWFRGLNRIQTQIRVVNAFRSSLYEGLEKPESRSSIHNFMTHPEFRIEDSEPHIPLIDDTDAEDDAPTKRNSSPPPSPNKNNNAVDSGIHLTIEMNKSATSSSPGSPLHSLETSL
# B1: Metal transporter CNNM4 (protein, UniProt Q6P4Q7 1-775)
# chain: MAPVGGGGRPVGGPARGRLLLAAPVLLVLLWALGARGQGSPQQGTIVGMRLASCNKSCGTNPDGIIFVSEGSTVNLRLYGYSLGNISSNLISFTEVDDAETLHKSTSCLELTKDLVVQQLVNVSRGNTSGVLVVLTKFLRRSESMKLYALCTRAQPDGPWLKWTDKDSLLFMVEEPGRFLPLWLHILLITVLLVLSGIFSGLNLGLMALDPMELRIVQNCGTEKERRYARKIEPIRRKGNYLLCSLLLGNVLVNTSLTILLDNLIGSGLMAVASSTIGIVIFGEILPQALCSRHGLAVGANTILLTKFFMLLTFPLSFPISKLLDFFLGQEIRTVYNREKLMEMLKVTEPYNDLVKEELNMIQGALELRTKTVEDIMTQLQDCFMIRSDAILDFNTMSEIMESGYTRIPVFEDEQSNIVDILYVKDLAFVDPDDCTPLKTITRFYNHPVHFVFHDTKLDAMLEEFKKGKSHLAIVQKVNNEGEGDPFYEVLGLVTLEDVIEEIIKSEILDESDMYTDNRSRKRVSEKNKRDFSAFKDADNELKVKISPQLLLAAHRFLATEVSQFSPSLISEKILLRLLKYPDVIQELKFDEHNKYYARHYLYTRNKPADYFILILQGKVEVEAGKENMKFETGAFSYYGTMALTSVPSDRSPAHPTPLSRSASLSYPDRTDVSTAATLAGSSNQFGSSVLGQYISDFSVRALVDLQYIKITRQQYQNGLLASRMENSPQFPIDGCTTHMENLAEKSELPVVDETTTLLNERNSLLHKASHENAI
# B2: Calsyntenin-1 (protein, UniProt O94985 29-981)
# chain: ARVNKHKPWLEPTYHGIVTENDNTVLLDPPLIALDKDAPLRFAESFEVTVTKEGEICGFKIHGQNVPFDAVVVDKSTGEGVIRSKEKLDCELQKDYSFTIQAYDCGKGPDGTNVKKSHKATVHIQVNDVNEYAPVFKEKSYKATVIEGKQYDSILRVEAVDADCSPQFSQICSYEIITPDVPFTVDKDGYIKNTEKLNYGKEHQYKLTVTAYDCGKKRATEDVLVKISIKPTCTPGWQGWNNRIEYEPGTGALAVFPNIHLETCDEPVASVQATVELETSHIGKGCDRDTYSEKSLHRLCGAAAGTAELLPSPSGSLNWTMGLPTDNGHDSDQVFEFNGTQAVRIPDGVVSVSPKEPFTISVWMRHGPFGRKKETILCSSDKTDMNRHHYSLYVHGCRLIFLFRQDPSEEKKYRPAEFHWKLNQVCDEEWHHYVLNVEFPSVTLYVDGTSHEPFSVTEDYPLHPSKIETQLVVGACWQEFSGVENDNETEPVTVASAGGDLHMTQFFRGNLAGLTLRSGKLADKKVIDCLYTCKEGLDLQVLEDSGRGVQIQAHPSQLVLTLEGEDLGELDKAMQHISYLNSRQFPTPGIRRLKITSTIKCFNEATCISVPPVDGYVMVLQPEEPKISLSGVHHFARAASEFESSEGVFLFPELRIISTITREVEPEGDGAEDPTVQESLVSEEIVHDLDTCEVTVEGEELNHEQESLEVDMARLQQKGIEVSSSELGMTFTGVDTMASYEEVLHLLRYRNWHARSLLDRKFKLICSELNGRYISNEFKVEVNVIHTANPMEHANHMAAQPQFVHPEHRSFVDLSGHNLANPHPFAVVPSTATVVIVVCVSFLVFMIILGVFRIRAAHRRTMRDQDTGKENEMDWDDSALTITVNPMETYEDQHSSEEEEEEEEEEESEDGEEEDDITSAESESSEEEEGEQGDPQNATRQQQLEWDDSTLSY
# B3: Calsyntenin-3 (protein, UniProt Q9BQT9 20-956)
# chain: NKANKHKPWIEAEYQGIVMENDNTVLLNPPLFALDKDAPLRYAGEICGFRLHGSGVPFEAVILDKATGEGLIRAKEPVDCEAQKEHTFTIQAYDCGEGPDGANTKKSHKATVHVRVNDVNEFAPVFVERLYRAAVTEGKLYDRILRVEAIDGDCSPQYSQICYYEILTPNTPFLIDNDGNIENTEKLQYSGERLYKFTVTAYDCGKKRAADDAEVEIQVKPTCKPSWQGWNKRIEYAPGAGSLALFPGIRLETCDEPLWNIQATIELQTSHVAKGCDRDNYSERALRKLCGAATGEVDLLPMPGPNANWTAGLSVHYSQDSSLIYWFNGTQAVQVPLGGPSGLGSGPQDSLSDHFTLSFWMKHGVTPNKGKKEEETIVCNTVQNEDGFSHYSLTVHGCRIAFLYWPLLESARPVKFLWKLEQVCDDEWHHYALNLEFPTVTLYTDGISFDPALIHDNGLIHPPRREPALMIGACWTEEKNKEKEKGDNSTDTTQGDPLSIHHYFHGYLAGFSVRSGRLESREVIECLYACREGLDYRDFESLGKGMKVHVNPSQSLLTLEGDDVETFNHALQHVAYMNTLRFATPGVRPLRLTTAVKCFSEESCVSIPEVEGYVVVLQPDAPQILLSGTAHFARPAVDFEGTNGVPLFPDLQITCSISHQVEAKKDESWQGTVTDTRMSDEIVHNLDGCEISLVGDDLDPERESLLLDTTSLQQRGLELTNTSAYLTIAGVESITVYEEILRQARYRLRHGAALYTRKFRLSCSEMNGRYSSNEFIVEVNVLHSMNRVAHPSHVLSSQQFLHRGHQPPPEMAGHSLASSHRNSMIPSAATLIIVVCVGFLVLMVVLGLVRIHSLHRRVSGAGGPPGASSDPKDPDLFWDDSALTIIVNPMESYQNRQSCVTGAVGGQQEDEDSSDSEVADSPSSDERRIIETPPHRY
# B4: Neutral amino acid transporter B(0) (protein, UniProt Q15758 1-541)
# chain: MVADPPRDSKGLAAAEPTANGGLALASIEDQGAAAGGYCGSRDQVRRCLRANLLVLLTVVAVVAGVALGLGVSGAGGALALGPERLSAFVFPGELLLRLLRMIILPLVVCSLIGGAASLDPGALGRLGAWALLFFLVTTLLASALGVGLALALQPGAASAAINASVGAAGSAENAPSKEVLDSFLDLARNIFPSNLVSAAFRSYSTTYEERNITGTRVKVPVGQEVEGMNILGLVVFAIVFGVALRKLGPEGELLIRFFNSFNEATMVLVSWIMWYAPVGIMFLVAGKIVEMEDVGLLFARLGKYILCCLLGHAIHGLLVLPLIYFLFTRKNPYRFLWGIVTPLATAFGTSSSSATLPLMMKCVEENNGVAKHISRFILPIGATVNMDGAALFQCVAAVFIAQLSQQSLDFVKIITILVTATASSVGAAGIPAGGVLTLAIILEAVNLPVDHISLILAVDWLVDRSCTVLNVEGDALGAGLLQNYVDRTESRSTEPELIQVKSELPLDPLPVPTEEGNPLLKHYRGPAGDATVASEKESVM
# B5: Protocadherin-20 (protein, UniProt Q8N6Y1 61-951)
# chain: SYSRATELLYSLNEGLPAGVLIGSLAEDLRLLPRSAGRPDPQSQLPERTGAEWNPPLSFSLASRGLSGQYVTLDNRSGELHTSAQEIDREALCVEGGGGTAWSGSVSISSSPSDSCLLLLDVLVLPQEYFRFVKVKIAIRDINDNAPQFPVSQISVWVPENAPVNTRLAIEHPAVDPDVGINGVQTYRLLDYHGMFTLDVEENENGERTPYLIVMGALDRETQDQYVSIIIAEDGGSPPLLGSATLTIGISDINDNCPLFTDSQINVTVYGNATVGTPIAAVQAVDKDLGTNAQITYSYSQKVPQASKDLFHLDENTGVIKLFSKIGGSVLESHKLTILANGPGCIPAVITALVSIIKVIFRPPEIVPRYIANEIDGVVYLKELEPVNTPIAFFTIRDPEGKYKVNCYLDGEGPFRLSPYKPYNNEYLLETTKPMDYELQQFYEVAVVAWNSEGFHVKRVIKVQLLDDNDNAPIFLQPLIELTIEENNSPNAFLTKLYATDADSEERGQVSYFLGPDAPSYFSLDSVTGILTVSTQLDREEKEKYRYTVRAVDCGKPPRESVATVALTVLDKNDNSPRFINKDFSFFVPENFPGYGEIGVISVTDADAGRNGWVALSVVNQSDIFVIDTGKGMLRAKVSLDREQQSSYTLWVEAVDGGEPALSSTAKITILLLDINDNPPLVLFPQSNMSYLLVLPSTLPGSPVTEVYAVDKDTGMNAVIAYSIIGRRGPRPESFRIDPKTGNITLEEALLQTDYGLHRLLVKVSDHGYPEPLHSTVMVNLFVNDTVSNESYIESLLRKEPEINIEEKEPQISIEPTHRKVESVSCMPTLVALSVISLGSITLVTGMGIYICLRKGEKHPREDENLEVQIPLKGKIDLHMRERKPMDISNI
# Target: T1, Human PRELP (proline and arginine-rich end leucine-rich repeat protein) with a C-terminal FLAG tag, overexpressed in Expi293 cells (human) (UniProt P51888)
# T1 sequence: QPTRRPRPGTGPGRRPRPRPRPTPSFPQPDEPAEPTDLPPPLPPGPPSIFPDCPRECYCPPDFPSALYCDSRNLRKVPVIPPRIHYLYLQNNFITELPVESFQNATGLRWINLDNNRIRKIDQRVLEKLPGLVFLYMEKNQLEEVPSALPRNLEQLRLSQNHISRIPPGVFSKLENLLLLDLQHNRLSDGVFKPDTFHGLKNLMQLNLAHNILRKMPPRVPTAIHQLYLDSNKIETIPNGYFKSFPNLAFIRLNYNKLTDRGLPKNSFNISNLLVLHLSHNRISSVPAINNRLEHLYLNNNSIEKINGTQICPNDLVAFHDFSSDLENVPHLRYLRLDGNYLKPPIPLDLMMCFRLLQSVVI
# Assay: affinity purification with mass spectrometry; CoIP-MS: DDM extract (0.1% DDM, PBS pH 7.4) of the membrane fraction of Expi293 cells expressing PRELP-FLAG, captured on DDDDK-tagged Protein Purification Gel overnight at 4 °C, eluted with FLAG peptide; S-Trap digestion, LC-MS/MS; compared with control-transfected cells
row,Molecule,binding
1,Protocadherin Fat 1 (from UniProt Q14517 22-4588),binds
2,Low-affinity nerve growth factor receptor p75NTR (from UniProt P08138 29-427),binds
3,Prolow-density lipoprotein receptor-related protein 1 (from UniProt Q07954 20-4544),binds
4,Cadherin EGF LAG seven-pass G-type receptor 2 (from UniProt Q9HCU4 32-2923),binds
5,Chondroitin sulfate proteoglycan 4 (from UniProt Q6UVK1 30-2322),binds
6,CD97 antigen (from UniProt P48960 21-835) (receptor),binds
7,Proprotein convertase subtilisin/kexin type 5 (from UniProt Q92824 115-1860) (enzyme),binds
8,Desmoglein-2 (from UniProt Q14126 50-1118),binds
9,Extracellular matrix protein FRAS1 (from UniProt Q86XX4 27-4008),binds
10,Renin receptor (from UniProt O75787 17-350),binds
11,FRAS1-related extracellular matrix protein 2 (from UniProt Q5SZK8 47-3169),binds
12,Catenin beta-1 (from UniProt P35222 1-781),binds
13,Signal transducer and activator of transcription 1-alpha/beta (from UniProt P42224 1-750),binds
14,Integral membrane protein 2B (from UniProt Q9Y287 1-266),binds
15,Plasma membrane calcium-transporting ATPase 1 (from UniProt P20020 1-1220),binds
16,Insulin-like growth factor 1 receptor (from UniProt P08069 31-1367),binds
17,B1,binds
18,B2,binds
19,B3,binds
20,B4,binds
21,B5,binds

# Reference: article PMC7948961, “Proteomic identification and validation of novel interactions of the putative tumor suppressor PRELP with membrane proteins including IGFI-R and p75NTR” (The Journal of Biological Chemistry, 2021)
